Values quoted from earlier work as cited in patent US20060165654A1, “Peptides and recombinant proteins mimicking interferons” (priority 2002, published 2006).
Some of these results come from one statement about several compounds together.

Protein sequences, listed by entry. Tags and fused reporters are not part of them. Lines headed by an entry give the natural chain unless they say otherwise; changes in a name come on top.
UniProt P01563: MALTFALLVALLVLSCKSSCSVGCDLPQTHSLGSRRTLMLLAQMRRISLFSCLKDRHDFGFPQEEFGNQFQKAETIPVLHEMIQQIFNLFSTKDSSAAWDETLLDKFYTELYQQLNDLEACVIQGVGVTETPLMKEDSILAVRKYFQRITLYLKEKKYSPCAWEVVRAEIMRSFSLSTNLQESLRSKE

Test system: human T-lymphoblastoid cell line MT4
Settings: cited from earlier work

Question: With “124-138: synthetic peptide corresponding to the sequence 124-138 of human interferon-α2 (QRITLYLKEKKYSPC; UniProt P01563 147-161, looked up, fragment)” as the substance, how does the “concentrations suppressing proliferation of MT4” value read?
Answer: 10^−9-10^−8 M
